From patent US6174858A (Merck & Co., Inc., priority 1998, dated 2001)

Experiment: general procedure: Fmoc solid-phase peptide synthesis; Fmoc-Ser(t-Bu)-WANG resin loaded at 0.82 mmol/g; DCC and HOBt
Details: conjugation step, analytical HPLC (system A), acetate salt

## des- Acetylvinblastine-40-(N-Acetyl-4-trans-L-Hyp-Ser-Ser Chg-Gln-Ser-Ser-Pro) ester
  final HPLC purity: 98.9%
